Results: patent US8962654B2 (Eli Lilly and Company, priority 2013, dated 2015)

Test system: hD1 KI mouse hippocampus
Assay: Extracellular levels of acetylcholine by microdialysis in the hippocampus
Type: in vivo, mice
Conditions: 1 mg/kg IP

## COc1cc2c(cc1OC)C(=O)C(CC1CCN(Cc3ccccc3)CC1)C2 (centres unmarked) [Donepezil, reference compound]
hD1 KI mouse hippocampus, AUC relative to pre-injection baseline
  ACh Response AUC ± SEM (2 hr): 1472 ± 120
Result in words
  extracellular levels of Ach compared to vehicle controls: statistically significant increase
